Data as given in PubChem BioAssay AID1508597 (Cure First, 2020)
Here is an unselected part of about 2,100 reagents tested. 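Calls flag viability under 80% in either arm, not effects specific to rucaparib; the reference for percent is not stated.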 Not given: the 100% reference.

- Test: 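Knock-downs altering ovarian cancer cell survival with or without PARP inhibitor rucaparib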 (primary screen)
- Cell system: human ovarian carcinoma lines grown from tumours: OCI-P5x (papillary serous) and OCI-C5x (clear cell)
- Knock-down reagent: siRNA pool against human genes, 1.25 pmol siRNA per well
- Time to read-out: 72 h or 96 h, depending on the cell culture
- Challenge: rucaparib 20 µM (about IC30) or vehicle, present until read-out
- Read-out: 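Luminescent ATP-based viability assay read 72 or 96 h after transfection, depending on culture, given as normalised percent viability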
- Scale: viability, normalised: higher = more viable cells remaining
- Active means: 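a well counts as a hit if its normalised viability is under 80 percent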
- Calls: active = viability under 80%; inactive = viability 80% or more

NEIL3 (GeneID 55247), rucaparib or vehicle Rucaparib, cell line OCI-C5x (clear cell), technical replicate 1 scored viability, normalised (%) = 42.2; active.
NEIL3 (GeneID 55247), rucaparib or vehicle Rucaparib, cell line OCI-C5x (clear cell), technical replicate 2 scored viability, normalised (%) = 41.6; active.
NEIL3 (GeneID 55247), rucaparib or vehicle Rucaparib, cell line OCI-C5x (clear cell), technical replicate 3 gave viability, normalised (%) = 41.5; active.
NEIL3 (GeneID 55247), rucaparib or vehicle Rucaparib, cell line OCI-P5x (serous), technical replicate 1 scored viability, normalised (%) = 72.7; active.
NEIL3 (GeneID 55247), rucaparib or vehicle Rucaparib, cell line OCI-P5x (serous), technical replicate 2 showed viability, normalised (%) = 62.1; active.
For NEIL3 (GeneID 55247), rucaparib or vehicle Rucaparib, cell line OCI-P5x (serous), technical replicate 3, the values are viability, normalised (%) = 59.9; active.
For NEIL3 (GeneID 55247), rucaparib or vehicle Vehicle, cell line OCI-C5x (clear cell), technical replicate 1 the deposit lists viability, normalised (%) = 58.6; active.
With NEIL3 (GeneID 55247), rucaparib or vehicle Vehicle, cell line OCI-C5x (clear cell), technical replicate 2, the values are viability, normalised (%) = 52.5; active.
NEIL3 (GeneID 55247), rucaparib or vehicle Vehicle, cell line OCI-C5x (clear cell), technical replicate 3 showed viability, normalised (%) = 38; active.
NEIL3 (GeneID 55247), rucaparib or vehicle Vehicle, cell line OCI-P5x (serous), technical replicate 1 scored viability, normalised (%) = 62.1; active.
For NEIL3 (GeneID 55247), rucaparib or vehicle Vehicle, cell line OCI-P5x (serous), technical replicate 2, the values are viability, normalised (%) = 60.9; active.
For NEIL3 (GeneID 55247), rucaparib or vehicle Vehicle, cell line OCI-P5x (serous), technical replicate 3 the deposit lists viability, normalised (%) = 56.6; active.

3 entries from above, arranged by “viability, normalised (%)”, high to low.
NEIL3 (GeneID 55247), rucaparib or vehicle Vehicle, cell line OCI-P5x (serous), technical replicate 1 | viability, normalised (%): 62.1; Call: active
NEIL3 (GeneID 55247), rucaparib or vehicle Vehicle, cell line OCI-P5x (serous), technical replicate 2 | viability, normalised (%): 60.9; Call: active
NEIL3 (GeneID 55247), rucaparib or vehicle Vehicle, cell line OCI-C5x (clear cell), technical replicate 3 | viability, normalised (%): 38; Call: active

Next results:
BRWD1 (GeneID 54014), rucaparib or vehicle Rucaparib, cell line OCI-C5x (clear cell), technical replicate 1 scored viability, normalised (%) = 56.1; active.
With BRWD1 (GeneID 54014), rucaparib or vehicle Rucaparib, cell line OCI-C5x (clear cell), technical replicate 2, the entry reads viability, normalised (%) = 47.4; active.
BRWD1 (GeneID 54014), rucaparib or vehicle Rucaparib, cell line OCI-C5x (clear cell), technical replicate 3 showed viability, normalised (%) = 37; active.
For BRWD1 (GeneID 54014), rucaparib or vehicle Rucaparib, cell line OCI-P5x (serous), technical replicate 1, the entry reads viability, normalised (%) = 72.6; active.
BRWD1 (GeneID 54014), rucaparib or vehicle Rucaparib, cell line OCI-P5x (serous), technical replicate 2 gave viability, normalised (%) = 88.2; inactive.
For BRWD1 (GeneID 54014), rucaparib or vehicle Rucaparib, cell line OCI-P5x (serous), technical replicate 3, the entry reads viability, normalised (%) = 86.3; inactive.
With BRWD1 (GeneID 54014), rucaparib or vehicle Vehicle, cell line OCI-C5x (clear cell), technical replicate 1, the values are viability, normalised (%) = 50.2; active.
BRWD1 (GeneID 54014), rucaparib or vehicle Vehicle, cell line OCI-C5x (clear cell), technical replicate 2 scored viability, normalised (%) = 50.3; active.
With BRWD1 (GeneID 54014), rucaparib or vehicle Vehicle, cell line OCI-C5x (clear cell), technical replicate 3 the deposit lists viability, normalised (%) = 49.8; active.
BRWD1 (GeneID 54014), rucaparib or vehicle Vehicle, cell line OCI-P5x (serous), technical replicate 1 scored viability, normalised (%) = 61; active.
BRWD1 (GeneID 54014), rucaparib or vehicle Vehicle, cell line OCI-P5x (serous), technical replicate 2 scored viability, normalised (%) = 45.4; active.
BRWD1 (GeneID 54014), rucaparib or vehicle Vehicle, cell line OCI-P5x (serous), technical replicate 3 showed viability, normalised (%) = 66.8; active.
